# Results from PubChem BioAssay AID651640 (Broad Institute, 2012).
# Where “and” joins values, the source holds several entries; their conditions need not be identical. Identical values can stand only once. About 6,000 (1.7%) of roughly 350,000 compounds were called active. Inconclusive results, whose numbers are uncertain, are shown with a selection of clear calls. Rule as the data show it: active = CPE inhibition above about 20% (passing the limit was not always enough); inconclusive = no clear call, values can overlap the other calls; tested in BHK-21 cells.
# Assay: protection of cells from dengue 2 killing – plate reader, single concentration, primary screen (AID 651640);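 also: 0% = median of neutral control wells and 100% = median of positive control wells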
# Details: DENV2-infected cells, cytopathic effect rescue, at 9.99 µM, stronger effect = higher value
row,Compound,CPE inhibition
1,CNC[C@@H]1Oc2ccc(NS(=O)(=O)c3ccc(Cl)cc3)cc2CC(=O)N([C@@H](C)CO)C[C@@H]1C,active: 40.7%
2,CC(=O)Nc1ccc(N/C=C2/CCCC2=O)cc1,inactive: -6.12%
3,C[C@H](O)C#Cc1ccc2c(c1)O[C@H](CN(C)CC1CCOCC1)[C@@H](C)CN([C@H](C)CO)S2(=O)=O,inconclusive: -1.84%
4,O=C(Nc1ccc(Cl)cc1)N1C[C@H]2[C@@H](c3ccccc31)[C@@H](CO)N2C(=O)c1cccnc1,inconclusive: 77.6%
5,CCc1nc2c(OCC(=O)C(C)(C)C)cccn2c1N(C)C(=O)c1ccccc1F,inconclusive: 34.6%
6,COc1ccc2c3c([nH]c2c1)[C@@H](CO)N(C(=O)C1CC1)CC31CCN(C)CC1,inactive: -7.23%
7,COCCN(C(=O)COC(=O)C1CCC(C(C)(C)C)CC1)c1c(N)n(Cc2ccccc2)c(=O)[nH]c1=O (centres undefined),inconclusive: 47.6%
8,Cn1cc(Cl)c(C(=O)OCC(=O)c2ccccc2)n1,inconclusive: 23.7%
9,O=C(Cc1cccnc1)N1CC2(C1)[C@H](c1ccccc1)[C@@H](CO)N2C(=O)C1CC1,active: 21.4%
10,CCCNC(=O)C[C@H]1CC[C@@H]2[C@H](COc3ccc(NC(=O)c4cc(C)on4)cc3C(=O)N2C)O1,inconclusive: 48.5%
11,O=S(=O)(c1ccccc1)N1CCN=C1SCc1c(F)cccc1Cl,inconclusive: 52.1%
12,O=C1C2C3C=CC(CNS(=O)(=O)c4ccccc4)(O3)C2C(=O)N1c1ccc(Cl)cc1 (centres undefined),inconclusive: 74.4%
13,CC1=C(C(=O)OCC2CCCCC2)C(c2ccc(F)cc2)NC(=O)N1 (centres undefined),inconclusive: 25.3%
14,O=C(Nc1ccccc1F)N[C@@H]1CC[C@@H](CCNC(=O)C2CCCC2)O[C@H]1CO,active: 39%
15,COc1ccccc1NC(=O)N(C)C[C@H]1Oc2ncc(C#CCC(C)C)cc2C(=O)N([C@H](C)CO)C[C@@H]1C,inconclusive: 38.1%
16,C[C@H](NC(=O)CCC1CCC(=O)N1)c1ccccc1 (some centres undefined),inconclusive: 26.2%
17,COc1ccc(C#Cc2ccc([C@H]3[C@H]4CN(C(=O)c5cccnc5)CC(=O)N4[C@H]3CO)cc2)cc1,inconclusive: 20.3%
18,COC(=O)C1C(O)CCC2CN3CCc4c([nH]c5ccccc45)C3CC21 (centres undefined),inconclusive: 33.4%
19,CCCNC(=O)Nc1ccc2c(c1)C(=O)N(C)[C@H]1CC[C@H](CC(=O)Nc3ccc4c(c3)CCCC4)O[C@@H]1CO2,inconclusive: 56.2%
20,COC(=O)[C@H]1[C@H](CO)[C@H]2Cn3c(ccc(C4=CCCCC4)c3=O)[C@H]2N1Cc1cccnc1,active: 25.7%
21,Cc1ccccc1S(=O)(=O)N1CC[C@@H]2[C@H](CO)Nc3ccc(-c4ccc(C#N)cc4)cc3[C@@H]21,active: 24.5%
22,CCN(Cc1ccncc1)Cc1nc(Cc2ccccc2Cl)no1,inconclusive: 22.7%
23,CC1CC1C(=O)OCC(=O)N(C)CC(=O)Nc1ccc(F)cc1 (centres undefined),inconclusive: 30.7%

row,Compound,CPE inhibition
1,Nc1[nH]c(C(=O)c2ccc(Br)cc2)c(-c2ccncc2)c1C(=O)NCCc1c[nH]c2ccccc12,active: 20.2%
2,N#C[C@@H]1[C@H](c2ccccc2-c2cccc(F)c2)[C@H](CO)N1C(=O)NC1CCCCC1,inconclusive: 22.4%
3,COc1ccc2c3c(n(C)c2c1)[C@H](CO)N(C(=O)Nc1ccc(F)cc1)CC31CCN(Cc2cccnc2)CC1,inconclusive: 67.4%
4,CC(C)CNC(=O)C1(C)CCCN1C(=O)Cc1cccc2ccccc12 (centres undefined),inconclusive: 25.7%
5,O=C(c1cccnc1)N1CCCCN2[C@H](CO)[C@@H](c3ccc(C#Cc4ccccn4)cc3)[C@@H]2C1,inactive: -0.989%
6,C[C@@H]1CN([C@H](C)CO)C(=O)Cc2cc(NS(=O)(=O)c3ccccc3)ccc2O[C@H]1CN(C)S(C)(=O)=O,inactive: -4.5%
7,CC(=O)N1[C@H](CNC(=O)C2CC2)[C@H](c2ccc(-c3cccc(F)c3)cc2)[C@@H]1CO,active: 28.4%
8,COc1ccc(NC(=O)Nc2ccc3c(c2)CC(=O)N([C@@H](C)CO)C[C@H](C)[C@@H](CN(C)Cc2ccncc2)O3)cc1,inconclusive: 30%
9,CCOC(=O)[C@]12CCCC=C1N(Cc1ccc3c(c1)OCO3)C(=O)[C@H](CC(=O)NCCCCc1ccccc1)C2,active: 50.3%
10,C[C@H](CO)N1C[C@H](C)[C@@H](CN(C)S(=O)(=O)c2ccc(F)cc2)Oc2ccc(NS(=O)(=O)c3ccc(F)cc3)cc2CC1=O,inactive: -9.09%
11,CCN1C(=O)[C@@H]2[C@@H](c3ccc(-c4ccc(F)cc4)cc3)N3CCC[C@@]3(C(=O)OC)[C@@H]2C1=O,inconclusive: 21.4%
12,CCOC(=O)C1(CCOc2ccccc2)CCN(Cc2ccc(OCCO)cc2)CC1,inconclusive: 20.3%
13,O=C(O)Cc1c[nH]c2ccccc12,inactive: -14.3%
14,O=C(c1ccncc1)N(c1ccc(N2CCOCC2)cc1)C(c1ccccc1)c1nc2ccccc2[nH]1 (centres undefined),inactive: -1.68%
15,COc1ccc2c3c([nH]c2c1)[C@H](CO)N(C(=O)Nc1ccc(F)cc1)CC31CN(C(=O)c2ccccn2)C1,inactive: 11.9%
16,COc1ccc(S(=O)(=O)N(C)C[C@H]2OCCCC[C@H](C)Oc3ccc(NS(=O)(=O)c4ccccc4)cc3C(=O)N([C@@H](C)CO)C[C@@H]2C)cc1,inactive: 3.4%
17,O=C(O)c1ccc(NS(=O)(=O)c2ccc(Cl)c(C(=O)Nc3ccccc3[N+](=O)[O-])c2)cc1,inconclusive: 29.1%
18,CCN(C[C@@H]1N[C@@H](CO)[C@@H]1c1ccccc1)C(=O)c1ccncc1,active: 22%
19,C[C@H]1CN([C@@H](C)CO)C(=O)c2cc(Br)cnc2O[C@H]1CN(C)C(=O)C1CCOCC1,active: 23.6%
20,CC(C)NC(=O)Nc1ccc2c(c1)C(=O)N([C@H](C)CO)C[C@H](C)[C@@H](CN(C)S(=O)(=O)c1ccccc1)O2,inconclusive: 22.4%
21,C[C@@H]1CN([C@H](C)CO)C(=O)c2cc(NC(=O)Nc3ccccc3)ccc2O[C@@H]1CN(C)Cc1ccc2c(c1)OCO2,inconclusive: 23.7%
22,O=C(N[C@H]1C=C[C@@H](CC(=O)N2CCOCC2)O[C@@H]1CO)c1ccccn1,inactive: 14.2%
23,COCc1cc(N2CCN(C(=O)OC(C)(C)C)C[C@@H]2C)ccc1N1CC[C@@H](O)C1,inactive: -2.55%

row,Compound,CPE inhibition
1,O=C(N[C@H]1CC[C@@H](CCn2cc(-c3cccnc3)nn2)O[C@H]1CO)c1ccccc1F,inactive: 12.5%
2,Cc1ccc(NC(=S)N/N=C/c2ccc([N+](=O)[O-])s2)cc1,inactive: -6.44%
3,O=C(Cc1ccncc1)NCC[C@@H]1CC[C@@H](NC(=O)Nc2cccc(F)c2)[C@@H](CO)O1,active: 22.7%
4,C[C@H](CO)N1C[C@H](C)[C@@H](CN(C)C(=O)Nc2ccc3c(c2)OCO3)Oc2cc(C#Cc3ccccc3)ccc2S1(=O)=O,inconclusive: 32.9%
5,Cc1ccc(OCC(=O)Nc2ccc(S(=O)(=O)N(C)C3CCN(C)CC3)cc2)c(C)c1,inactive: -4.03%
6,CO[C@H]1CN(C)C(=O)c2ccc(NC(=O)Nc3cc(F)ccc3F)cc2OC[C@@H](C)N(C(=O)c2ccccn2)C[C@H]1C,active: 37.7%
7,O=C(C[C@H]1CC[C@H]2[C@@H](COC[C@@H](O)CN2CC2CCCC2)O1)NCC1CC1,inconclusive: 20.6%
8,CCSCCOC(=O)C1=C(C)NC(=O)NC1c1ccc2c(c1)OCO2 (centres undefined),inconclusive: 25%
9,COc1ccc(COC[C@@]23Oc4ccccc4[C@@H](NC(=O)N2C)[C@H]3COC(=O)c2ccc([N+](=O)[O-])cc2)cc1,inactive: 6.44%
10,C[C@H](CO)N1C[C@H](C)[C@H](CN(C)Cc2ccncc2)Oc2ccc(NC(=O)Nc3ccc4c(c3)OCO4)cc2CC1=O,inconclusive: 34.8%
11,CSCCCN1CC[C@@H](N2CCN(c3ccccc3F)CC2)[C@H](O)C1,inconclusive: 29.5%
12,CSc1ncnc2c1ncn2CCCN(C)CCc1ccccn1,inconclusive: 38%
13,C[C@H](CO)N1C[C@H](C)[C@@H](CN(C)C(=O)c2ccc(N3CCN(C)CC3)cc2)OCc2cnnn2CCCC1=O,inactive: 0.958% and inconclusive: 21.2% and inactive: 1.99%
14,C[C@@H]1CN([C@H](C)CO)S(=O)(=O)c2ccc(C#CCC3CCCC3)cc2O[C@@H]1CN(C)C(=O)CC1CC1,inconclusive: -8.2%
15,CCN(CC)C(=O)C1=C(C)N(CCCOC)C(=O)C(CC(=O)NC2CC2)C1 (centres undefined),inconclusive: 38.1%
16,C=CCOc1cccc(C(=O)N2CCCC(Nc3ccc(F)cc3)C2)c1 (centres undefined),inconclusive: 71.8%
17,C[C@@H]1CN([C@H](C)CO)C(=O)c2cc(NC(=O)Nc3ccc(F)cc3)ccc2O[C@@H]1CN(C)Cc1ccc(Oc2ccccc2)cc1,inactive: 2.68%
18,O=C(NCc1ccncc1)C(=O)NCC1OCCN1S(=O)(=O)c1ccccc1 (centres undefined),inconclusive: 59.2%
19,O=[N+]([O-])c1ccccc1Nc1cccnc1,inconclusive: 26%
20,COc1ccccc1-c1ccc2c(c1)[C@@H]1[C@@H](CCN1C(=O)c1ccc3c(c1)OCO3)[C@H](CO)N2,inactive: -17.8%
21,CC(=O)c1cccc(NC(=O)c2cc(-c3ccncc3)nc3ccccc23)c1,inconclusive: 20.4%
22,O=c1c2ccccc2nc2c3ccccc3c(NCCO)nn12,active: 73.1%
23,CCNC(=O)c1cc2c(c(-c3cccc(-c4ccccc4F)c3)n1)[C@@H](CCO)N(C(=O)CC1CC1)C2,inactive: -0.166% and inactive: 2.24%
